Test results reported in publication PMC12648108.
Results are given in words; binding and its absence hold for the method and conditions named. In cells and extracts the contact can be indirect. Some results given as binding are weak or reduced against the parent protein; the word gives no strength.

By UniProt entry, the sequences of proteins in these tests, tags left out. Where a name states a change or a piece, a line headed by the entry shows the natural chain unless it says otherwise.
UniProt P16520: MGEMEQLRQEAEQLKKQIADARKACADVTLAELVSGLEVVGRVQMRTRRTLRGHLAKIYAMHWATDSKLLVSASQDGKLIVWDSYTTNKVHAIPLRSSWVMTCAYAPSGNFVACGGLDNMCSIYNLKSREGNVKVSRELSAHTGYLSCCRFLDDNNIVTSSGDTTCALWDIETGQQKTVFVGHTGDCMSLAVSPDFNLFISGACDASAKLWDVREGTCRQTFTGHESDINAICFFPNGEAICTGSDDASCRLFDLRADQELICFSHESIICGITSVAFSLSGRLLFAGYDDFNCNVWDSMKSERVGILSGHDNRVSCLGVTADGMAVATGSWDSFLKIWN
UniProt Q14344: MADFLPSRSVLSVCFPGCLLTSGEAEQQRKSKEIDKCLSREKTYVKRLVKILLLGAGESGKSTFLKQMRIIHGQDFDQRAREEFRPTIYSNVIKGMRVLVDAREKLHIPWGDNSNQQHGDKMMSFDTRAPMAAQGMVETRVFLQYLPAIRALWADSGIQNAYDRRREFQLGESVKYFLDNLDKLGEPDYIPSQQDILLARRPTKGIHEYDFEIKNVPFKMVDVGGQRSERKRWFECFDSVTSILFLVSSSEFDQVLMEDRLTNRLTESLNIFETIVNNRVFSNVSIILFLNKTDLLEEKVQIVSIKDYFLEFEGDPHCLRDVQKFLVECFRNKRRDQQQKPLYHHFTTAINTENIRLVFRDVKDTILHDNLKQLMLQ

Columns and labels:
[1] = biological target: P2RY8-K180I-LgBiT (human) (UniProt Q86VZ1); test: split reporter
[2] = biological target: P2RY8-W181M-LgBiT (human) (UniProt Q86VZ1); test: split reporter
[3] = biological target: P2RY8-LgBiT (wild type) (human) (UniProt Q86VZ1); test: split reporter
P2RY8 V29W-LgBiT (human) = P2RY8 V29W-LgBiT (human) (UniProt Q86VZ1); test: split reporter
[4] = biological target: Gβ3 with Gγ9-GFP2 (pcDNA3.1-Beta3 and pcDNA3.1-GGamma9-GFP2) (UniProt P16520); test: FRET or BRET

In the case of “β-Arr2-SmBiT (from UniProt P32121 1-409)”, the binding [1] was “binds”, the binding [2] was “binds” and the binding [3] was “binds”. The binding (P2RY8 V29W-LgBiT (human)) was “binds”.

For “Gα13-RLuc8 (pcDNA5/FRT/TO-GAlpha13-RLuc8) (from UniProt Q14344 1-377)”, the binding [4] was “binds”.
